# According to patent US20160326530:
# By UniProt entry, the sequences of proteins in these tests, tags left out. Residues count along the entry.
# UniProt P14780, 112-445: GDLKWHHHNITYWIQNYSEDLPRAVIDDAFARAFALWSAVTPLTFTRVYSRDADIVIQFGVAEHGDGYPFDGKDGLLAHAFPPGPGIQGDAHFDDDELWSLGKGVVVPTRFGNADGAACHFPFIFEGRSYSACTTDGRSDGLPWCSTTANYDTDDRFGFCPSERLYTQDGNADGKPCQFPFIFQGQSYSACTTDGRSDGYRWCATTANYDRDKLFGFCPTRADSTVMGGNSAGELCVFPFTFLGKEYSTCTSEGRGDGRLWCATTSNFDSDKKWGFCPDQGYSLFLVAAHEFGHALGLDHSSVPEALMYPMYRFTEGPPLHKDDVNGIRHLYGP
# Construct, isoform or probe ends are uncertain for at least one entry.
# Molecular target: MMP-9 catalytic domain (Homo sapiens) (UniProt P14780)
# Test: SELEX
# Conditions: purified recombinant protein; protein details: C-terminal 6-His, Biomol International; single-stranded DNA
row,Sequence,selection result
1,GCCTGTTGTGAGCCTCCTGTCGAACCGCGAGGGTTTGGCTTACGGCGCCTGGCGTTGAGCGTTTATTCTTGTCTCCC [8F27],selected
2,GCCTGTTGTGAGCCTCCTGTCGAACCGGGGTTTGGTGGGTCTGGGGTAGTTGGCTTGAGCGTTTATTCTTGTCTCCC [11F57],selected
3,GCCTGTTGTGAGCCTCCTGTCGAACCGTTGGGATTGGCTTCGGTGCCTGGCGTGTTGAGCGTTTATTCTTGTCTCCC [8F50],selected
4,GCCTGTTGTGAGCCTCCTGTCGAACCTGCGCCGTGATTAGGGGTGGGGGGGTGGTTGAGCGTTTATTCTTGTCTCCC [8F67],selected
5,GCCTGTTGTGAGCCTCCTGTCGAACTGGCGCGGGGTTGGTGTCGGGTTTGGTTTTTGAGCGTTTATTCTTGTCTCCC [8F19],selected
6,GCCTGTTGTGAGCCTCCTGTCGAAGAAGTGGTTGGGGTATGGTTGGTACAGGTTTTGAGCGTTTATTCTTGTCTCCC [8F77],selected
7,GCCTGTTGTGAGCCTCCTGTCGAAGCGGGGTTTGGTGGGTCTGGGGTTGTTGGTTTGAGCGTTTATTCTTGTCTCCC [8F44],selected
8,GCCTGTTGTGAGCCTCCTGTCGAATAGGGTTTGGTGGGTCTGGGGTTGCTGGCCTTGAGCGTTTATTCTTGTCTCCC [11F89],selected
9,GCCTGTTGTGAGCCTCCTGTCGAATCGTATGGCACGGGGTTGGTGTTGGGTTGGTTGAGCGTTTATTCTTGTCTCCC [8F14],selected
10,GCCTGTTGTGAGCCTCCTGTCGAATGAGGGGGGTGGATGGGAGGGTTCCGCACGTTGAGCGTTTATTCTTGTCTCCC [8F65],selected
11,GCCTGTTGTGAGCCTCCTGTCGAATGGACGGTGGGTTGGGGCGGGGGGTGTCCATTGAGCGTTTATTCTTGTCTCCC [11F2],selected
12,GCCTGTTGTGAGCCTCCTGTCGAATGGGGTTTGGTGGGTCTGGGGTTGCTGGCCTTGAGCGTTTATTCTTGTCTCCC [11F46],selected
13,GCCTGTTGTGAGCCTCCTGTCGAATGGGGTTTGGTGGGTTTGGGGTTGCTGGCCTTGAGCGTTTATTCTTGTCTCCC [11F76],selected
14,GCCTGTTGTGAGCCTCCTGTCGAATGGTGGTTGGTGGGGTGGAGGTTAGGTACCTTGAGCGTTTATTCTTGTCTCCC [8F11],selected
15,GCCTGTTGTGAGCCTCCTGTCGAATTGGGGTTTGGTGGGTCTGGGGTTGCGGGTTTGAGCGTTTATTCTTGTCTCCC [8F68],selected
16,GCCTGTTGTGAGCCTCCTGTCGAATTGGTGGGATGGGGGGGGGGTTGTTCGGCTTTGAGCGTTTATTCTTGTCTCCC [8F5],selected
